This note sets out measurements from the supplement of paper PMC8551327.

This is one part of the list. No stated cut-off is given here; in the data, active = 1.25 or more and inactive = the rest. Repeats are few or missing, and single values can be far off.

The subject of this assay is Kcc2-LUC knock-in mouse primary cortical neurons (Kcc2 promoter reporter). As to the kind of experiment: Kcc2 promoter-driven luciferase activity relative to vehicle control (fold of vehicle (ratio)); higher = stronger Kcc2 promoter activation (Kcc2 expression enhancer). The settings on record: 100 nM; 48 h.
Consider `CC[C@H](CC[C@@H](C)[C@H]1CC[C@H]2[C@@H]3CC=C4C[C@@H](O)CC[C@]4(C)[C@H]3CC[C@]12C)C(C)C` [Beta-Sitosterol], for which the “Kcc2 promoter-driven luciferase activity” value was active: 1.43.
Regarding `COc1ccc2c(c1[N+](=O)[O-])CC[C@@H]1[C@@H]2CC[C@]2(C)C(=O)CC[C@@H]12` [3-Methoxy-4-nitro-estra-1,3,5(10)-trien-17-one], the “Kcc2 promoter-driven luciferase activity” value is inactive: 0.93.
For `Nc1ccc2c(c1)CN1C(=O)c3ccccc3C1=N2` [Daniquidone], the “Kcc2 promoter-driven luciferase activity” value is active: 1.46.
Take `COc1ccc(C(=O)/C(Br)=C\C(=O)O)cc1` [Sodium bromebrate, (Z)-]: the “Kcc2 promoter-driven luciferase activity” value is inactive: 0.92.
On to `NC(=O)N/N=C1\CC2C3CC4C2C4C13` (configuration not stated), for which the “Kcc2 promoter-driven luciferase activity” value is inactive: 0.83.
Regarding `CCCCCc1cc(O)cc2c1Oc1cc(O)cc(C(=O)CCCC)c1C(=O)O2` [Norlobaric Acid], the “Kcc2 promoter-driven luciferase activity” value was inactive: 1.09.
For the compound `CC(C)c1ccc(O)c(=O)cc1` [gamma-thujaplicin], the “Kcc2 promoter-driven luciferase activity” value is inactive: 1.14.
Turning to `CC1CC(O)C2C3(C)CCCC2(COC3=O)C12CCC1(CCOC1=O)O2` (configuration not stated), the “Kcc2 promoter-driven luciferase activity” value is inactive: 0.988.
On to `CC(=Nc1ccccc1)C1=C(O)C(Cc2ccccc2)NC1=O` (configuration not stated) [(3E)-3-(1-Anilinoethylidene)-g-benzylpyrrolidine-2,4-dione], for which the “Kcc2 promoter-driven luciferase activity” value is inactive: 1.11.
In the case of `O=C(CCCN1CCC(C(O)c2ccc(F)cc2)CC1)c1ccc(F)cc1` (configuration not stated) [Dihydrolenperone], the “Kcc2 promoter-driven luciferase activity” value is inactive: 1.06.
As for `C=CCOC1OC(CO[Si](C)(C)C(C)(C)C)C(OCc2ccccc2)C(OCc2ccccc2)C1OCc1ccccc1` (configuration not stated), the “Kcc2 promoter-driven luciferase activity” value was inactive: 1.08.
As to `CN(CCc1ccccn1)c1ccc2c(c1)C(=O)c1ccccc1-2`, the “Kcc2 promoter-driven luciferase activity” value was inactive: 0.68.
